Source: the supplement of paper PMC10849652
Some of the results follow.

Amino acid sequences for entries named in this document (tags omitted). A change or cut given only in a name is not applied to a line headed by its entry.
UniProt P62310: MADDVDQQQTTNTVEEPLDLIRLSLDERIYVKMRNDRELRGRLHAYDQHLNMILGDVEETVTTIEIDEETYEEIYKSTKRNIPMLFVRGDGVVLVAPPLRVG
UniProt Q8IWT6: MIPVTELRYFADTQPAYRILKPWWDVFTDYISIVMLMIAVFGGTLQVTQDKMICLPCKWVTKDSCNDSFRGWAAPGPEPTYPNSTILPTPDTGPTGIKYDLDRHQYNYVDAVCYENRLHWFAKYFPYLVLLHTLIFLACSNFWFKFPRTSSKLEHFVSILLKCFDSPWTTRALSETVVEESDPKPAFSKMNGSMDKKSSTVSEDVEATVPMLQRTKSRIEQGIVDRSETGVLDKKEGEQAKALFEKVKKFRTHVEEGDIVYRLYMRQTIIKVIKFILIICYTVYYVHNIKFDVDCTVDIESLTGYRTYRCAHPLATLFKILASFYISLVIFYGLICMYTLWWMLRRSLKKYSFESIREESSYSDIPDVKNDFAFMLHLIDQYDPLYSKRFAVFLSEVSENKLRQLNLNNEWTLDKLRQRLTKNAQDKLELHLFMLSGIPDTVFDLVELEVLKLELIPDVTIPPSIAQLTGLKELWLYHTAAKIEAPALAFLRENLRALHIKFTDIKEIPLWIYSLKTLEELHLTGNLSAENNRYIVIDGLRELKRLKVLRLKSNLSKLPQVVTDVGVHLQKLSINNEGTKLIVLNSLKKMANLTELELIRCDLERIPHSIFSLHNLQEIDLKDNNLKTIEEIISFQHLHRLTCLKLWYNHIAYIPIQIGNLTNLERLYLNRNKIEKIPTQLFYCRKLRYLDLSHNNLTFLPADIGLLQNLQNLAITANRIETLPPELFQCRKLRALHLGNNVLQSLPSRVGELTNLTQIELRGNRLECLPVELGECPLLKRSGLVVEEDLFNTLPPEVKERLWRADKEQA
UniProt Q9BX40: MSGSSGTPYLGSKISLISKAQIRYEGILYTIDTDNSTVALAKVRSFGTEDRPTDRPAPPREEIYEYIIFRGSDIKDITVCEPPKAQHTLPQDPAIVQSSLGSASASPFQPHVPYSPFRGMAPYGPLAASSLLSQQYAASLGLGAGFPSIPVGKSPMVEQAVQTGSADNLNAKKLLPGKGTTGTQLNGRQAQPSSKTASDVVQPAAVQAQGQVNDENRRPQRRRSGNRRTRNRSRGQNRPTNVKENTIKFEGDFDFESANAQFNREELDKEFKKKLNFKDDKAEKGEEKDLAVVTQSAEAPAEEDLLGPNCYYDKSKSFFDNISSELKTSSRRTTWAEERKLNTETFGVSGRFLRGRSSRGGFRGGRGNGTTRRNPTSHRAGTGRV
UniProt Q9H008: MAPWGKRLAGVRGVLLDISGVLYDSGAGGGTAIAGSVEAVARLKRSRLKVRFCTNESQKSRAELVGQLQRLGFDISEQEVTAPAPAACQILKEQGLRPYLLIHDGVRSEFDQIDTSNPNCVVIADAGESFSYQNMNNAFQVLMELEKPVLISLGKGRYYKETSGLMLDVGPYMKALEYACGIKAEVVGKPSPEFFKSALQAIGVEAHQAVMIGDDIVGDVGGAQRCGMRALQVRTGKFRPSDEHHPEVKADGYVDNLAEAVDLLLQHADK
UniProt P18858, whole entry, looked up: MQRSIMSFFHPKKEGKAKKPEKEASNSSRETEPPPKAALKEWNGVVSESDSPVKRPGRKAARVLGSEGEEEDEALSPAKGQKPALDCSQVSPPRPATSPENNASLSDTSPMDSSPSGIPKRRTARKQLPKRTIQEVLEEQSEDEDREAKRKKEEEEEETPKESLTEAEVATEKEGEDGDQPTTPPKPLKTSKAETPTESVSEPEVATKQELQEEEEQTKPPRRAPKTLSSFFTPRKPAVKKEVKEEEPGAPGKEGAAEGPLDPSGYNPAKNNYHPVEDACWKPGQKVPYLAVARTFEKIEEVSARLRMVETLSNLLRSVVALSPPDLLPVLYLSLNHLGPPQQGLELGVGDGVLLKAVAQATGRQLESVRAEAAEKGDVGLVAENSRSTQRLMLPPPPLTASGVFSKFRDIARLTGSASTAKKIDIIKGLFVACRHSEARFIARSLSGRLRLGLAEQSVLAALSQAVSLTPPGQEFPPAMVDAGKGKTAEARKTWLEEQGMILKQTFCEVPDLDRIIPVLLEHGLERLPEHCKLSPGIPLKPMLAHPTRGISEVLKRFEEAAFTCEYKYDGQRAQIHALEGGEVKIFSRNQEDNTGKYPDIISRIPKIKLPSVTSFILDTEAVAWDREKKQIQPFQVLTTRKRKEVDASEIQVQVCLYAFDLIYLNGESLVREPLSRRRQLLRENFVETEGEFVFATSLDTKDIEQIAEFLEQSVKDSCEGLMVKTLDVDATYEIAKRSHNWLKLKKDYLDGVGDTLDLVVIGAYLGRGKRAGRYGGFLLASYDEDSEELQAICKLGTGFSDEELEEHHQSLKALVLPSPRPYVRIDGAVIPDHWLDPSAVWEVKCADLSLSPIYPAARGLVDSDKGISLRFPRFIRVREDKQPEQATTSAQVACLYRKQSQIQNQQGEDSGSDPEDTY
UniProt P09382, whole entry, looked up: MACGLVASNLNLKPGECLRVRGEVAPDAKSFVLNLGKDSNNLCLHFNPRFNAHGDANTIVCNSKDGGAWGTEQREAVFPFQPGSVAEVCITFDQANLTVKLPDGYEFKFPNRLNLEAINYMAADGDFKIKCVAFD
UniProt Q14847: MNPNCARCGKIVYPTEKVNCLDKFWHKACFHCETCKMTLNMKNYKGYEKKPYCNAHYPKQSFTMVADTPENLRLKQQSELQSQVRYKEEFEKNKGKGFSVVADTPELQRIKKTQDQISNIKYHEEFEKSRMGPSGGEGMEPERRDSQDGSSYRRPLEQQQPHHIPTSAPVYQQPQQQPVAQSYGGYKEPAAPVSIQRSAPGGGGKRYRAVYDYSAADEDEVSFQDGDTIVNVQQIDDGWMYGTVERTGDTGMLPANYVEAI
UniProt Q14739: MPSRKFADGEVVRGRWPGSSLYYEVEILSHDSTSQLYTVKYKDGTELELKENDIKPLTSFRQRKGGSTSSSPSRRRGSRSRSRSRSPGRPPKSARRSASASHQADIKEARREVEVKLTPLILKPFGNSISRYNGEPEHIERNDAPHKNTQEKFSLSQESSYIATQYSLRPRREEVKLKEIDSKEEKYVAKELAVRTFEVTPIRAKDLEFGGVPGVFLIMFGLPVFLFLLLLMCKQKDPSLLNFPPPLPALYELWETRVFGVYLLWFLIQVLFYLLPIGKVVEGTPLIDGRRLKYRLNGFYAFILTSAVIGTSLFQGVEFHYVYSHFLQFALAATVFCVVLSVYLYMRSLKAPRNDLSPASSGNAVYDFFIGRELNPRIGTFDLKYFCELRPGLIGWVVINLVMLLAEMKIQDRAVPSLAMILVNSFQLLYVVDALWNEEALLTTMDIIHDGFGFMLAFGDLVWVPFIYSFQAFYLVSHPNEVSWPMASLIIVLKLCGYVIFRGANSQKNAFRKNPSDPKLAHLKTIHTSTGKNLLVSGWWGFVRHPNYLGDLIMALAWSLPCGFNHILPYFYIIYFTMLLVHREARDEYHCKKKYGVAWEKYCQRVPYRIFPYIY
UniProt Q9Y333: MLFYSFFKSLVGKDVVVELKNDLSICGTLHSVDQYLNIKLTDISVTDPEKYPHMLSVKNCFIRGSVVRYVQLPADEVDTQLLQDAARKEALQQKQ
UniProt Q92539: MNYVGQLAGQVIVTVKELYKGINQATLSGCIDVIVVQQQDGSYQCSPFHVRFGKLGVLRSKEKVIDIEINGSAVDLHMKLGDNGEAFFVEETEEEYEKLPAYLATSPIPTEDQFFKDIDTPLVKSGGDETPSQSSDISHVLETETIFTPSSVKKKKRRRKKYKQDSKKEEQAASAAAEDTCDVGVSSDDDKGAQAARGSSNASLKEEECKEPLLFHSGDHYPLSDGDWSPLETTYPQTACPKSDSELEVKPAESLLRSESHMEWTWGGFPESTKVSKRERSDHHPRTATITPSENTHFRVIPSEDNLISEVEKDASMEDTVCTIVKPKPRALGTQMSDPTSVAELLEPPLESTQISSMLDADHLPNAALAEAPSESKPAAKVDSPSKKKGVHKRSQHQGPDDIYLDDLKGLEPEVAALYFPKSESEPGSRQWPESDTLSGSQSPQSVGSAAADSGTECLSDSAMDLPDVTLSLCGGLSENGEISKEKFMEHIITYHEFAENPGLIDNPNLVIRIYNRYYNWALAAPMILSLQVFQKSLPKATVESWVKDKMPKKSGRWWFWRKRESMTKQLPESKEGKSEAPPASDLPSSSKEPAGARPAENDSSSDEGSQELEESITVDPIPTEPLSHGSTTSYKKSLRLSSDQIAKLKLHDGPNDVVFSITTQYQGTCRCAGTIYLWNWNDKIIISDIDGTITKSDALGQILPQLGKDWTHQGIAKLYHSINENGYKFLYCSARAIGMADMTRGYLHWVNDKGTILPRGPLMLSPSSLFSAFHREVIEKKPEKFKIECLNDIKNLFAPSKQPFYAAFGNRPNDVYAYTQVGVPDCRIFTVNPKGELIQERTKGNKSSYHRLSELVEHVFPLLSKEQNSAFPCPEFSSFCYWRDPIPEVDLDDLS
UniProt Q8NG48: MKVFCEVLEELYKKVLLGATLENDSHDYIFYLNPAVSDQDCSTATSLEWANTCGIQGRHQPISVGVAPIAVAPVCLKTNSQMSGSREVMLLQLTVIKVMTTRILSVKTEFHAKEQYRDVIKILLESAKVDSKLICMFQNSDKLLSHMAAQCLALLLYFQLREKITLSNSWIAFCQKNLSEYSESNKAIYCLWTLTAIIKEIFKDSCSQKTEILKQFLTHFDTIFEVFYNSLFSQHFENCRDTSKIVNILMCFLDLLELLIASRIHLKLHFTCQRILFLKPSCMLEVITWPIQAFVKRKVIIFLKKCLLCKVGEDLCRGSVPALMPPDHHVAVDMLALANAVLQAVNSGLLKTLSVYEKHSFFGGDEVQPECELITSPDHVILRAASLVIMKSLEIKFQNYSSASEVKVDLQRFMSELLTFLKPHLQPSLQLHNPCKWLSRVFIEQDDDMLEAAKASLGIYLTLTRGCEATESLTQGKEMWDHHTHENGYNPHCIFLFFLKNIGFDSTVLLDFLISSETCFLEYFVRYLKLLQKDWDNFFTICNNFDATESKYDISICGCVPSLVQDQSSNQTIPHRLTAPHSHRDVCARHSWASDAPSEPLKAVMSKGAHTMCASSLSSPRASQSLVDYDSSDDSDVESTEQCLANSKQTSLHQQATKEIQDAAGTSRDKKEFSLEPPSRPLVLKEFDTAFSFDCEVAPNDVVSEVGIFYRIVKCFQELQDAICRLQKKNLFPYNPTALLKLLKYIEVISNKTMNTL
UniProt P25791: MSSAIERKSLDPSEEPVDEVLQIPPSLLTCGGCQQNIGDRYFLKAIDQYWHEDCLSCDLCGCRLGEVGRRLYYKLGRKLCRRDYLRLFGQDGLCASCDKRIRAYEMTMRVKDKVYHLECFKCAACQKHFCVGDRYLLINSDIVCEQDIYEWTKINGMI
UniProt Q68DH5: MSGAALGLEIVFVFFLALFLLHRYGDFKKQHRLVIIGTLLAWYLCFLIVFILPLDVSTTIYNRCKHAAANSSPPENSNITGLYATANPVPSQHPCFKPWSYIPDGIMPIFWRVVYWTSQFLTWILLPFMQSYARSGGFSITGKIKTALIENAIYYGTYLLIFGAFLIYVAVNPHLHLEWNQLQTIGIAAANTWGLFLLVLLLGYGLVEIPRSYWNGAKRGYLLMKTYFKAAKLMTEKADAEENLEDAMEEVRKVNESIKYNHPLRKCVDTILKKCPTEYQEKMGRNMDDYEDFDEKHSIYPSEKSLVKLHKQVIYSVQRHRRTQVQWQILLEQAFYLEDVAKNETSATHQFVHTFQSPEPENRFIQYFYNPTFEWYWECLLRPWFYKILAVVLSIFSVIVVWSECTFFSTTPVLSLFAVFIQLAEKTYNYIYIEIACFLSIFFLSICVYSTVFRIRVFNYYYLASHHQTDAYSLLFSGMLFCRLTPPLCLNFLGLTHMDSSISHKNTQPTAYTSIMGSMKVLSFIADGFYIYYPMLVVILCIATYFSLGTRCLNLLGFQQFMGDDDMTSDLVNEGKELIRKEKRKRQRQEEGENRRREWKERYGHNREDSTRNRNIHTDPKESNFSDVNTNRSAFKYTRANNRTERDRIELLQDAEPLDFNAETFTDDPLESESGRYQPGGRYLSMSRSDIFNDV

How the values were obtained:
Test in all cases: log2 fold change, soluble protein after heating vs DMSO (PISA); higher = thermal stabilisation; K562 lysate, 10 uM; active = over 0.2 and 3.5 SD of the protein, either way, in both replicates (recomputed)
ibrutinib = compound: C=CC(=O)N1CCC[C@@H](n2nc(-c3ccc(Oc4ccccc4)cc3)c3c(N)ncnc32)C1 [ibrutinib]
Procedure, shortened: (§1)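 The values are log-two fold changes in thermal stability compared with solvent controls and come from duplicates. They were obtained by TMTpro 16plex LC-MS/MS, with channel sums equalised, on the supernatant after 21,000xg for 90 min. That supernatant came from crude K562 extract at 1 mg/mL protein treated with 10 μM compound for 30 min, heated for 3 min across 48°C-58°C, pooled and brought to 0.5% NP-40 at 4°C.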

[1] = compound: CC(=O)c1cnc2ccc(-c3cc(Cl)c(O)c(Cl)c3)nc2c1N[C@H]1CC[C@H](CN(C)C)CC1
Procedure, shortened: as §1

ralimetinib = compound: CC(C)(C)Cn1c(N)nc2ccc(-c3[nH]c(C(C)(C)C)nc3-c3ccc(F)cc3)nc21 [ralimetinib]
Procedure, shortened: as §1

[2] = compound: CC(C)(O)CC(=O)NCCn1ccc2ncnc(Nc3ccc(Oc4cccc(C(F)(F)F)c4)c(Cl)c3)c21
Procedure, shortened: as §1

[3] = compound: CC(C)C1=C2N=C(C=C(N2N=C1)NCC3=CC=CC=C3)NCCCCCCN
Procedure, shortened: as §1

[4] = compound: CC1=C(C(CC(=O)N1)C2=CC=C(C=C2)C(F)(F)F)C(=O)NC3=C(C=C4C(=C3)C=NN4)F
Procedure, shortened: as §1

[5] = compound: CC1=C(C2=C(C=C1)C(=O)C3=CC=CC=C3N2CCCN)C
Procedure, shortened: as §1

[6] = compound: CC1=C(C=C(C=C1)NC(=O)C2=CC(=CC=C2)C(C)(C)C#N)NC3=CC4=C(C=C3)N=CN(C4=O)C
Procedure, shortened: as §1

[7] = compound: CC1=C(C=C(C=C1)NC(=O)C2=CC(=CC=C2)N(C)C)NC(=O)C3=CC=C(C=C3)O
Procedure, shortened: as §1

[8] = compound: CC1=CC=C(C=C1)SC2=C3C=C(SC3=CN=C2)C(=O)N
Procedure, shortened: as §1

vemurafenib = compound: CCCS(=O)(=O)Nc1ccc(F)c(C(=O)c2c[nH]c3ncc(-c4ccc(Cl)cc4)cc23)c1F [vemurafenib]
Procedure, shortened: as §1

[9] = compound: CCCS(=O)(=O)Nc1ccc(F)c(C(=O)c2c[nH]c3ncc(Cl)cc23)c1F
Procedure, shortened: as §1

barasertib = compound: CCN(CCCOc1ccc2c(Nc3cc(CC(=O)Nc4cccc(F)c4)[nH]n3)ncnc2c1)CCOP(=O)(O)O [barasertib]
Procedure, shortened: as §1

[10] = compound: CC[C@@H]1C(=O)N(C)c2cnc(Nc3ccc(C(=O)NC4CCN(C)CC4)cc3OC)nc2N1C1CCCC1
Procedure, shortened: as §1

volasertib = compound: CC[C@@H]1C(=O)N(C)c2cnc(Nc3ccc(C(=O)N[C@H]4CC[C@H](N5CCN(CC6CC6)CC5)CC4)cc3OC)nc2N1C(C)C [volasertib]
Procedure, shortened: as §1

[11] = compound: CCn1c(C(=O)N(C2CC2)C2CC2)cc2c3c(ncn3C)c(Nc3cc(C)n(C)n3)nc21
Procedure, shortened: as §1

[12] = compound: CCn1cc(-c2ccnc3[nH]c(-c4cccc(CN(C)C)c4)cc23)c(-c2ccc(NC(=O)N(C)C)cc2)n1
Procedure, shortened: as §1

[13] = compound: CN1CCC(CNc2ccc3ncc(-c4cccc(OC(F)(F)F)c4)n3n2)CC1
Procedure, shortened: as §1

saracatinib = compound: CN1CCN(CCOc2cc(OC3CCOCC3)c3c(Nc4c(Cl)ccc5c4OCO5)ncnc3c2)CC1 [saracatinib]
Procedure, shortened: as §1

sotrastaurin = compound: CN1CCN(c2nc(C3=C(c4c[nH]c5ccccc45)C(=O)NC3=O)c3ccccc3n2)CC1 [sotrastaurin]
Procedure, shortened: as §1

Row | Target | log2 fold change (ibrutinib) | log2 fold change [1] | log2 fold change (ralimetinib) | log2 fold change [2] | log2 fold change [3] | log2 fold change [4] | log2 fold change [5] | log2 fold change [6] | log2 fold change [7] | log2 fold change [8] | log2 fold change (vemurafenib) | log2 fold change [9] | log2 fold change (barasertib) | log2 fold change [10] | log2 fold change (volasertib) | log2 fold change [11] | log2 fold change [12] | log2 fold change [13] | log2 fold change (saracatinib) | log2 fold change (sotrastaurin)
1 | LSM3 (UniProt P62310) | inactive: -0.016 | inactive: -0.032 | inactive: 0.002 | inactive: -0.086 | inactive: -0.003 | inactive: -0.045 | inactive: -0.008 | inactive: 0.061 | inactive: 0.002 | inactive: -0.028 | inactive: 0.015 | inactive: -0.015 | inactive: 0.046 | inactive: 0.053 | inactive: 0.026 | inactive: -0.034 | inactive: -0.136 | inactive: -0.006 | inactive: -0.015 | inactive: 0.002
2 | LRRC8A (UniProt Q8IWT6) | inactive: 0.031 | inactive: 0.031 | inactive: -0.001 | inactive: -0.034 | inactive: -0.05 | inactive: 0.043 | inactive: -0.011 | inactive: -0.014 | inactive: 0.005 | inactive: 0.003 | inactive: 0.029 | inactive: 0.003 | inactive: -0.017 | inactive: 0.039 | inactive: -0.022 | inactive: -0.003 | inactive: 0.018 | inactive: 0.021 | inactive: -0.01 | inactive: 0.001
3 | LETM1 (UniProt O95202) | inactive: -0.006 | inactive: -0.001 | inactive: 0.007 | inactive: 0.002 | inactive: 0.045 | inactive: -0.026 | inactive: 0.026 | inactive: 0.036 | inactive: 0 | inactive: 0.037 | inactive: 0.029 | inactive: 0.005 | inactive: -0.015 | inactive: -0.012 | inactive: 0.01 | inactive: -0.015 | inactive: 0.08 | active: -0.287 | inactive: -0.002 | inactive: -0.014
4 | LSM14B isoform 2 (UniProt Q9BX40) | inactive: 0.024 | inactive: 0.001 | inactive: 0.029 | inactive: 0.135 | inactive: -0.001 | inactive: -0.012 | inactive: 0.019 | inactive: -0.001 | inactive: 0.027 | inactive: 0.035 | inactive: 0.07 | inactive: -0.017 | inactive: -0.005 | inactive: -0.04 | inactive: -0.015 | inactive: 0.014 | inactive: -0.073 | inactive: 0.037 | inactive: 0.014 | inactive: -0.064
5 | LHPP (UniProt Q9H008) | inactive: -0.013 | inactive: -0.02 | inactive: -0.004 | inactive: -0.013 | inactive: -0.005 | inactive: 0.011 | inactive: 0.005 | inactive: 0.024 | inactive: -0.016 | inactive: -0.009 | inactive: 0.07 | inactive: -0.008 | inactive: -0.1 | inactive: 0.026 | inactive: 0.015 | inactive: -0.046 | inactive: -0.239 | inactive: 0.119 | inactive: 0.042 | inactive: -0.011
6 | LIG1 (UniProt P18858) | inactive: 0.007 | inactive: -0.024 | inactive: 0.016 | inactive: -0.032 | inactive: 0 | inactive: -0.009 | inactive: 0.03 | inactive: 0.023 | inactive: 0 | inactive: -0.023 | inactive: 0.003 | inactive: -0.004 | inactive: -0.007 | inactive: 0.016 | inactive: -0.012 | inactive: -0.009 | inactive: 0.084 | inactive: -0.008 | inactive: 0.013 | inactive: -0.004
7 | LENG8 (UniProt Q96PV6) | inactive: -0.062 | inactive: -0.033 | inactive: -0.059 | inactive: -0.046 | inactive: -0.395 | inactive: 0.052 | inactive: 0.042 | inactive: -0.206 | inactive: 0.164 | inactive: -0.016 | inactive: 0.022 | inactive: -0.062 | inactive: 0.023 | inactive: 0.07 | inactive: -0.124 | inactive: 0 | inactive: 0.034 | inactive: 0.019 | inactive: -0.365 | inactive: 0.041
8 | LGALS1 (UniProt P09382) | inactive: 0.034 | inactive: -0.025 | inactive: 0.002 | inactive: -0.05 | inactive: 0.019 | inactive: -0.038 | inactive: -0.002 | inactive: 0.037 | inactive: -0.004 | inactive: 0.008 | inactive: 0.011 | inactive: -0.014 | inactive: 0.111 | inactive: 0.03 | inactive: 0.052 | inactive: -0.005 | inactive: -0.016 | inactive: -0.042 | inactive: -0.031 | inactive: -0.054
9 | LASP1 (UniProt Q14847) | inactive: 0.019 | inactive: -0.014 | inactive: -0.031 | inactive: 0.011 | inactive: -0.026 | inactive: -0.007 | inactive: -0.009 | inactive: 0.008 | inactive: 0.013 | inactive: -0.013 | inactive: 0.025 | inactive: -0.02 | inactive: -0.043 | inactive: 0.032 | inactive: 0.012 | inactive: 0.02 | inactive: -0.038 | inactive: 0.022 | inactive: -0.006 | inactive: -0.01
10 | LBR (UniProt Q14739) | inactive: 0.034 | inactive: -0.01 | inactive: 0.019 | inactive: -0.121 | inactive: -0.029 | inactive: 0.018 | inactive: 0.065 | inactive: -0.089 | inactive: -0.026 | inactive: -0.036 | inactive: 0.012 | inactive: 0.008 | inactive: 0.041 | inactive: 0.014 | inactive: 0.156 | inactive: 0.052 | inactive: 0.117 | inactive: -0.22 | inactive: 0.064 | inactive: 0.048
11 | LSM2 (UniProt Q9Y333) | inactive: -0.045 | inactive: -0.005 | inactive: -0.036 | inactive: -0.001 | inactive: 0.022 | inactive: -0.079 | inactive: 0.007 | inactive: 0.02 | inactive: -0.004 | inactive: -0.005 | inactive: 0.002 | inactive: -0.014 | inactive: 0.008 | inactive: -0.016 | inactive: 0.041 | inactive: -0.048 | inactive: -0.053 | inactive: 0.068 | inactive: -0.006 | inactive: -0.002
12 | LPIN2 (UniProt Q92539) | inactive: 0.005 | inactive: 0.043 | inactive: -0.012 | inactive: -0.035 | inactive: 0.024 | inactive: 0.167 | inactive: 0.013 | inactive: 0.06 | inactive: 0.062 | inactive: -0.003 | inactive: -0.061 | inactive: 0.027 | inactive: 0 | inactive: 0.045 | inactive: 0.008 | inactive: 0.005 | inactive: -0.002 | inactive: -0.073 | inactive: 0.057 | inactive: 0.057
13 | LINS1 (UniProt Q8NG48) | inactive: 0.103 | inactive: -0.006 | inactive: 0.079 | inactive: -0.07 | inactive: 0.379 | inactive: 0.106 | inactive: 0.124 | inactive: 0.11 | inactive: 0.067 | inactive: 0.11 | inactive: -0.036 | inactive: -0.095 | inactive: -0.182 | inactive: 0.087 | inactive: -0.067 | inactive: -0.052 | inactive: 0.194 | inactive: 0.052 | inactive: -0.061 | inactive: 0.085
14 | LMO2 isoform 3 (UniProt P25791) | inactive: -0.139 | inactive: 0.052 | inactive: 0.162 | inactive: 0.071 | inactive: -0.026 | inactive: 0.049 | inactive: 0.032 | inactive: -0.11 | inactive: -0.066 | inactive: -0.001 | inactive: 0.009 | inactive: 0.148 | inactive: 0.007 | inactive: -0.59 | inactive: 0.031 | inactive: -0.023 | inactive: -0.053 | inactive: 0.145 | inactive: 0.004 | inactive: -0.029
15 | LEO1 (UniProt Q8WVC0) | inactive: -0.032 | inactive: -0.019 | inactive: 0.007 | inactive: -0.035 | inactive: -0.024 | inactive: -0.025 | inactive: -0.026 | inactive: 0.029 | inactive: -0.006 | inactive: -0.017 | inactive: 0.009 | inactive: 0.015 | inactive: 0.002 | inactive: 0.069 | inactive: -0.017 | inactive: 0.001 | inactive: 0.007 | inactive: -0.006 | inactive: 0.019 | inactive: -0.058
16 | LMBRD2 (UniProt Q68DH5) | inactive: -0.004 | inactive: 0.028 | inactive: 0.049 | inactive: -0.063 | inactive: 0.694 | inactive: 0.118 | inactive: -0.005 | inactive: 0.023 | inactive: -0.006 | inactive: -0.017 | inactive: -0.024 | inactive: 0.015 | inactive: 0.014 | inactive: 0.05 | inactive: -0.012 | inactive: -0.049 | inactive: 0.013 | inactive: -0.081 | inactive: 0.033 | inactive: 0.054

Numbers 12 through 15, reprinted for reference:
Row | Target | log2 fold change (ibrutinib) | log2 fold change [1] | log2 fold change (ralimetinib) | log2 fold change [2] | log2 fold change [3] | log2 fold change [4] | log2 fold change [5] | log2 fold change [6] | log2 fold change [7] | log2 fold change [8] | log2 fold change (vemurafenib) | log2 fold change [9] | log2 fold change (barasertib) | log2 fold change [10] | log2 fold change (volasertib) | log2 fold change [11] | log2 fold change [12] | log2 fold change [13] | log2 fold change (saracatinib) | log2 fold change (sotrastaurin)
12 | LPIN2 (UniProt Q92539) | inactive: 0.005 | inactive: 0.043 | inactive: -0.012 | inactive: -0.035 | inactive: 0.024 | inactive: 0.167 | inactive: 0.013 | inactive: 0.06 | inactive: 0.062 | inactive: -0.003 | inactive: -0.061 | inactive: 0.027 | inactive: 0 | inactive: 0.045 | inactive: 0.008 | inactive: 0.005 | inactive: -0.002 | inactive: -0.073 | inactive: 0.057 | inactive: 0.057
13 | LINS1 (UniProt Q8NG48) | inactive: 0.103 | inactive: -0.006 | inactive: 0.079 | inactive: -0.07 | inactive: 0.379 | inactive: 0.106 | inactive: 0.124 | inactive: 0.11 | inactive: 0.067 | inactive: 0.11 | inactive: -0.036 | inactive: -0.095 | inactive: -0.182 | inactive: 0.087 | inactive: -0.067 | inactive: -0.052 | inactive: 0.194 | inactive: 0.052 | inactive: -0.061 | inactive: 0.085
14 | LMO2 isoform 3 (UniProt P25791) | inactive: -0.139 | inactive: 0.052 | inactive: 0.162 | inactive: 0.071 | inactive: -0.026 | inactive: 0.049 | inactive: 0.032 | inactive: -0.11 | inactive: -0.066 | inactive: -0.001 | inactive: 0.009 | inactive: 0.148 | inactive: 0.007 | inactive: -0.59 | inactive: 0.031 | inactive: -0.023 | inactive: -0.053 | inactive: 0.145 | inactive: 0.004 | inactive: -0.029
15 | LEO1 (UniProt Q8WVC0) | inactive: -0.032 | inactive: -0.019 | inactive: 0.007 | inactive: -0.035 | inactive: -0.024 | inactive: -0.025 | inactive: -0.026 | inactive: 0.029 | inactive: -0.006 | inactive: -0.017 | inactive: 0.009 | inactive: 0.015 | inactive: 0.002 | inactive: 0.069 | inactive: -0.017 | inactive: 0.001 | inactive: 0.007 | inactive: -0.006 | inactive: 0.019 | inactive: -0.058
